Structures can show the parent of a compound that is named as a salt. Some of the results follow. Plates or batches differ in their baseline, so values are only roughly comparable.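 Wild-type or misfolding-prone missense mutant B-domain-deleted factor VIII, fused to Gaussia luciferase, is stably expressed in HEK293 lines. Each score is (mean triplicate-well luminescence minus DMSO mean) divided by DMSO standard deviation. Hits score at least 2; lower scores could stem from decreased secretion or poorer cell viability.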
System: HEK293 WT BDD-FVIII-Gluc
Assay: secreted FVIII-Gluc luciferase Z-score vs DMSO control; higher = more FVIII-Gluc secretion
Conditions: 5 µM; 24 h

Row | SMILES | secreted FVIII-Gluc luciferase Z-score
1 | COc1ccc2[nH]c([S@@+]([O-])Cc3ncc(C)c(OC)c3C)nc2c1 [Esomeprazole magnesium (Nexium)] | inactive: 0.064
2 | C[C@]12C=CC(=O)N[C@@H]1CC[C@@H]1[C@@H]2CC[C@]2(C)[C@@H](C(=O)Nc3cc(C(F)(F)F)ccc3C(F)(F)F)CC[C@@H]12 [Dutasteride] | inactive: -2.95
3 | C[C@@H](NCCCc1cccc(C(F)(F)F)c1)c1cccc2ccccc12 [AMG-073 HCl (Cinacalcet hydrochloride)] | inactive: 0.506
4 | CCOC(=O)c1c(C)n(C)c2ccc(O)cc12 [Mecarbinate] | inactive: 1.62
5 | CC(=O)O[C@]1(C(C)=O)CC[C@H]2[C@@H]3C[C@H](C)C4=CC(=O)CC[C@]4(C)[C@H]3CC[C@@]21C [Medroxyprogesterone acetate] | active: 4.35
6 | Cc1cc(=O)n(-c2ccccc2)n1C [Antipyrine] | inactive: -1.06
7 | Cc1ccc(-c2cc(C(F)(F)F)nn2-c2ccc(S(N)(=O)=O)cc2)cc1 [Celecoxib] | inactive: -0.97
8 | O=NN(CCCl)C(=O)NC1CCCCC1 [Lomustine (CeeNU)] | inactive: -0.638
9 | CCc1ccc(CCOc2ccc(CC3SC(=O)NC3=O)cc2)nc1 (stereo not drawn) [Pioglitazone (Actos)] | inactive: -0.124
10 | CCOc1nc2cccc(C(=O)O)c2n1Cc1ccc(-c2ccccc2-c2nnn[nH]2)cc1 [Candesartan (Atacand)] | inactive: -2.28
11 | CO[C@H]1C[C@@H]2CC[C@@H](C)[C@@](O)(O2)C(=O)C(=O)N2CCCC[C@H]2C(=O)O[C@H]([C@H](C)C[C@@H]2CC[C@@H](OCCO)[C@H](OC)C2)CC(=O)[C@H](C)/C=C(\C)[C@@H](O)[C@@H](OC)C(=O)[C@H](C)C[C@H](C)/C=C/C=C/C=C/1C [Everolimus (RAD001)] | inactive: -1.07
12 | O=C(c1ccc(OCCN2CCCCC2)cc1)c1c(-c2ccc(O)cc2)sc2cc(O)ccc12 [Evista (Raloxifene Hydrochloride)] | inactive: 1.18
13 | COc1cc(/C=C/C(=O)CC(=O)/C=C/c2ccc(O)c(OC)c2)ccc1O [Curcumin] | inactive: -2.74
14 | NC(CO)C(=O)NNCc1ccc(O)c(O)c1O (stereo not drawn) [Benserazide] | inactive: -1.36
15 | O=C(O)c1cc(/N=N/c2ccc(O)c(C(=O)O)c2)ccc1O [olsalazine sodium] | inactive: -0.67
16 | NS(=O)(=O)c1cc2c(cc1Cl)NC(C(Cl)Cl)NS2(=O)=O (stereo not drawn) [Trichlormethiazide (Achletin)] | inactive: -0.515
17 | O=C(Nc1ccccc1)c1ccccc1O [Salicylanilide] | inactive: 1.04
18 | COc1ccc(/C=C/C(=O)Nc2ccccc2C(=O)O)cc1OC | inactive: 0.997
19 | CC(C)[C@H](N)C(=O)OCCOCn1cnc2c(=O)nc(N)[nH]c21 [Valaciclovir HCl] | inactive: -4.74

Row | SMILES | secreted FVIII-Gluc luciferase Z-score
20 | C[C@@H](CN1CC(=O)NC(=O)C1)N1CC(=O)NC(=O)C1 [Dexrazoxane Hydrochloride] | inactive: 0.157
21 | Nc1nc(F)nc2c1ncn2[C@@H]1O[C@H](CO)[C@@H](O)[C@@H]1O [Fludarabine (Fludara)] | inactive: -2.48
22 | CCN(CC)CC#CCOC(=O)C(O)(c1ccccc1)C1CCCCC1 (stereo not drawn) [Oxybutynin (Ditropan)] | inactive: -1.67
23 | CCOC(=O)c1c(CSc2ccccc2)n(C)c2cc(Br)c(O)c(CN(C)C)c12 [Arbidol HCl] | inactive: -2.66
24 | Cc1oncc1C(=O)Nc1ccc(C(F)(F)F)cc1 [Leflunomide] | inactive: 0.489
25 | CCOC(=O)[C@H](CCc1ccccc1)N[C@@H](C)C(=O)N1[C@H](C(=O)O)C[C@@H]2CCC[C@@H]21 [Ramipril (Altace)] | inactive: -0.0531
26 | CC(C)Cc1ccc(C(C)C(=O)O)cc1 (stereo not drawn) [Ibuprofen (Advil)] | active: 2.54
27 | CCN(Cc1ccncc1)C(=O)C(CO)c1ccccc1 (stereo not drawn) [Tropicamide] | inactive: -2.53
28 | CNCCc1ccccn1 [Betahistine 2HCl] | inactive: -0.672
29 | Nc1ccc(S(=O)(=O)Nc2nccs2)cc1 [Sulfathiazole] | inactive: -1.26
30 | Cc1cc(C(C)(C)C)cc(C)c1CC1=NCCN1 [Xylometazoline HCl] | inactive: 0.659
31 | COCCc1ccc(OCC(O)CNC(C)C)cc1 (stereo not drawn) [Metoprolol tartrate] | inactive: -0.726
32 | Cc1ncc([N+](=O)[O-])n1CC(C)O (stereo not drawn) [Secnidazole (Flagentyl)] | inactive: -0.255
33 | O=c1cc[nH]c(=S)[nH]1 [2-Thiouracil] | inactive: 0.842
34 | Nc1ccn([C@@H]2CS[C@H](CO)O2)c(=O)n1 [Lamivudine (Epivir)] | inactive: -4.9
35 | CC(C)/N=c1\cc2n(-c3ccc(Cl)cc3)c3ccccc3nc-2cc1Nc1ccc(Cl)cc1 [Clofazimine] | inactive: 0.537
36 | Cc1cc(=O)[nH]c(=S)[nH]1 [Methylthiouracil] | inactive: 0.956
37 | Oc1ccc(/C=C/c2cc(O)cc(O)c2)cc1 [Resveratrol] | inactive: -3.61
38 | CC(C(=O)O)c1ccc(C(=O)c2cccs2)cc1 (stereo not drawn) [Suprofen (Profenal)] | active: 3.07

Fetched one by one from above, 2 records:
Row | SMILES | secreted FVIII-Gluc luciferase Z-score
20 | C[C@@H](CN1CC(=O)NC(=O)C1)N1CC(=O)NC(=O)C1 [Dexrazoxane Hydrochloride] | inactive: 0.157
38 | CC(C(=O)O)c1ccc(C(=O)c2cccs2)cc1 (stereo not drawn) [Suprofen (Profenal)] | active: 3.07
